Assay results: patent US20260274985A1 (MYTHIC THERAPEUTICS, published 2026)
No constants are given. Whether binding was seen depends on the method and setting. Some binding calls cover weakened binding; strength is not graded here.

Protein sequences, listed by entry. Tags and fused reporters are not part of them. Residues count along the entry.
UniProt P09758, residues 27-274: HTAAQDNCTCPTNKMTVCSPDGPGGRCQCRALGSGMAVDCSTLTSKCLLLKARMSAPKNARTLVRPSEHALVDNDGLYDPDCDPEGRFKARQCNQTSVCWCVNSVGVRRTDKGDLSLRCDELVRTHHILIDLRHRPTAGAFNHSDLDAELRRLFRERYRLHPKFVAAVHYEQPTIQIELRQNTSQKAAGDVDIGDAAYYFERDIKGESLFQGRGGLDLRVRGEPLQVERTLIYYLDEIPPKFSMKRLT

Key:
[1] = target: Human TROP2 Protein, His Tag (Acro Biosystems) (human) (UniProt P09758); assay: Octet BLI: IgG supernatant on anti-human Fc sensor, 50 nM TROP2-His at pH 7.4, dissociation at pH 7.4 or 5.4; Octet Binding Result 1=pH dependent
[2] = target: Human TROP2 Protein, His Tag (Acro Biosystems) (human) (UniProt P09758); assay: BLI (Octet)
[3] = target: Human TROP2 Protein, His Tag (Acro Biosystems) (human) (UniProt P09758); assay: BLI (Octet) [2/2]

| Binder | binding [1] | binding [2] | binding [3] |
| --- | --- | --- | --- |
| MYT13278 (antibody, V domains shown) VH: QVQLQESGPGLVKPSETLSLTCTVSGGSISSYGVHWIRQPPGKGLEWIGVIWTSGVTDYNSALMGRVTISVDTSKNQFSLKLSSVTAADTAVYYCARDGDYHRYTMDYWGQGTLVTVSS VL: DIVMTQSPDSLAVSLGERATINCRASKSVSTSGYSYMHWYQQKPGQPPKLLIYLASNLHSGVPDRFSGSGSGTDFTLTISSLQAEDVAVYYCQHSRELPYTFGQGTKLEIK | binds | binds | – |
| MYT13284 (antibody, V domains shown) VH: QVQLQESGPGLVKPSETLSLTCTVSGGSISSYGVHWIRQPPGKGLEWIGVIWTSGVTDYNSALMGRVTISVDTSKNQFSLKLSSVTAADTAVYYCARDGDYDHYTMDYWGQGTLVTVSS VL: DIVMTQSPDSLAVSLGERATINCRASKSVSTSGYSYMHWYQQKPGQPPKLLIYLASNLEHGVPDRFSGSGSGTDFTLTISSLQAEDVAVYYCQHSRELPYTFGQGTKLEIK | binds | binds | – |
| MYT13293 (antibody, V domains shown) VH: QVQLQESGPGLVKPSETLSLTCTVSGGSISSYGVHWIRQPPGKGLEWIGVIWTSGVTDYNSALMGRVTISVDTSKNQFSLKLSSVTAADTAVYYCARDGDYHRYTMDYWGQGTLVTVSS VL: DIVMTQSPDSLAVSLGERATINCRASKSVSTSGYSYMHWYQQKPGQPPKLLIYLASNLESGVPDRFSGSGSGTDFTLTISSLQAEDVAVYYCQASRELPYTFGQGTKLEIK | binds | binds | – |
| MYT13294 (antibody, V domains shown) VH: QVQLQESGPGLVKPSETLSLTCTVSGGSISSYGVHWIRQPPGKGLEWIGVIWTSGVTDYNSALMGRVTISVDTSKNQFSLKLSSVTAADTAVYYCARDGDYDHYTMDYWGQGTLVTVSS VL: DIVMTQSPDSLAVSLGERATINCRASKSVSTSGYSYMHWYQQKPGQPPKLLIYLASNLESGVPDRFSGSGSGTDFTLTISSLQAEDVAVYYCQASRELPYTFGQGTKLEIK | binds | binds | – |
| MYT13303 (antibody, V domains shown) VH: QVQLQESGPGLVKPSETLSLTCTVSGGSISSYGVHWIRQPPGKGLEWIGVIWTSGVTDYNSALMGRVTISVDTSKNQFSLKLSSVTAADTAVYYCARDGDYHRYTMDYWGQGTLVTVSS VL: DIVMTQSPDSLAVSLGERATINCRASKSVSTSGYSYMHWYQQKPGQPPKLLIYLASNLESGVPDRFSGSGSGTDFTLTISSLQAEDVAVYYCQHSRELPYHFGQGTKLEIK | binds | binds | – |
| MYT13309 (antibody, V domains shown) VH: QVQLQESGPGLVKPSETLSLTCTVSGGSISSYGVHWIRQPPGKGLEWIGVIWTSGVTDYNSALMGRVTISVDTSKNQFSLKLSSVTAADTAVYYCARDGDYDHYTMDYWGQGTLVTVSS VL: DIVMTQSPDSLAVSLGERATINCRASKSVSTSGYSYMHWYQQKPGQPPKLLIYLASNLHSGVPDRFSGSGSGTDFTLTISSLQAEDVAVYYCQASRELPYTFGQGTKLEIK | binds | binds | – |
| MYT13446 (antibody, V domains shown) VH: QVQLQESGPGLVKPSETLSLTCTVSGGSISSYGVHWIRQPPGKGLEWIGVIWTSGVTDYNSALMGRVTISVDTSKNQFSLKLSSVTAADTAVYYCARDGDYDHYTMDYWGQGTLVTVSS VL: DIVMTQSPDSLAVSLGERATINCRASKSVSTSGYSYMHWYQQKPGQPPKLLIYLASNLHSGVPDRFSGSGSGTDFTLTISSLQAEDVAVYYCQHSRELPYHFGQGTKLEIK | binds | binds | – |
| MYT13441 (antibody, V domains shown) VH: QVQLQESGPGLVKPSETLSLTCTVSGGSISSYGVHWIRQPPGKGLEWIGVIWTSGVTDYNSALMGRVTISVDTSKNQFSLKLSSVTAADTAVYYCARDGDYDHYTMDYWGQGTLVTVSS VL: DIVMTQSPDSLAVSLGERATINCRASKSVSTSGYSYMHWYQQKPGQPPKLLIYLASNLHSGVPDRFSGSGSGTDFTLTISSLQAEDVAVYYCQASRELPYTFGQGTKLEIK | binds | – | binds |
